Laboratory results reported in PubChem BioAssay AID1865 (National Center for Advancing Translational Sciences (NCATS), 2009).
Screen size: about 280,000 compounds; about 540 (0.19%) were called active. Only results without a clear call are listed here; the source files them as inconclusive. Calls come from the whole dose curve; as a rule, active = well fitted activation curve with a large enough effect; inconclusive = small, poorly fitted or top-dose-only effect; inactive = flat fitted curve, though single readings scatter.

test: Quantitative High-Throughput Screen for Regulators of Epigenetic Control; details: murine LDR cells, GFP reporter derepression, 30 h; note: nearly all actives have a fitted effect of over 60% in size
Description: NIH Molecular Libraries Screening Centers Network [MLPCN] NIH Chemical Genomics Center [NCGC] MLSCN Grant: 1 X01 MH079860-01 Assay Provider: Elisabeth D. Martinez, University of Texas SW Medical Center NCGC Assay Overview: The Locus Derepression (LDR) assay detects the derepression or induction of a GFP reporter that is stably integrated in a genomic region of murine cells that is presumably silenced. Transcription of the GFP reporter is controlled by a CMV promoter, which normally is constitutively active. However, this cell line, termed LDR, was selected for lack of constitutive production of GFP. GFP production can be induced by incubating the cells with histone deacetylase or DNA methyltransferase inhibitors (Martinez et al., 2006). Compounds that derepress or induce this reporter locus are identified by enumerating GFP positive cells using a laser-scanning microplate cytometer (Auld et al., 2006). […]
NCGC Assay Protocol Summary: Three hundred LDR cells in 5 uL per well were dispensed into black, clear-bottom 1536-well plates. […] Fluorescent protein-based cellular assays analyzed by laser-scanning microplate cytometry in 1536-well plate format. […] A quantitative high-throughput screen identifies potential epigenetic modulators of gene expression. […] High-content fluorescence-based screening for epigenetic modulators. […]
Potency is the fitted concentration of half-maximal effect.

SMILES | Potency
CC(C)(C)c1ccc(OP(C)(=O)Nc2ccc(SC(F)(F)F)cc2)cc1 (stereo unspecified) | inconclusive: 35.5 µM
